# Primary screen of a compound library

By UniProt entry, the sequences of proteins in these tests, tags left out.
UniProt E9BF75, entry or part of it: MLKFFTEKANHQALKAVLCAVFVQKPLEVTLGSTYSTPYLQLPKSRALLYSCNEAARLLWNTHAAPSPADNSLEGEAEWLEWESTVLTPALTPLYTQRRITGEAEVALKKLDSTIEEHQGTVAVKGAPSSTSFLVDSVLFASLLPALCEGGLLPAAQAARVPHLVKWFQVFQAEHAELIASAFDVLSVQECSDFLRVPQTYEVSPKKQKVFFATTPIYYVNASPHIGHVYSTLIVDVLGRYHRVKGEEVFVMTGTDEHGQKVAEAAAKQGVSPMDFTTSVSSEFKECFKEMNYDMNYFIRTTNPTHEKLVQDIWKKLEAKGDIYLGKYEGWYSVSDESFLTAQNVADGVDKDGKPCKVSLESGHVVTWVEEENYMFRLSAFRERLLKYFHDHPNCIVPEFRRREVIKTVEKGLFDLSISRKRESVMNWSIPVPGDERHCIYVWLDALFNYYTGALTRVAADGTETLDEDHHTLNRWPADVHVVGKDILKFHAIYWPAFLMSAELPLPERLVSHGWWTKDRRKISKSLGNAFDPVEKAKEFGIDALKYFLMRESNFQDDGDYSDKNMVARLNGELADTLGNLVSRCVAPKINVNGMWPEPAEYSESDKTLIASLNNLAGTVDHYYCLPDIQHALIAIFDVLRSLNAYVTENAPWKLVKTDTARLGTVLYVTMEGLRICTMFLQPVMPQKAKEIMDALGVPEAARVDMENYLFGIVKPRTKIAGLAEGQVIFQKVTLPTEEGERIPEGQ

Measurements from “University of Dundee, Small-Polar-MMV Screening Library” (2021), ChEMBL document CHEMBL3988442.

Results are percentages, as filed. How 0% and 100% were set is not recorded. Most values in the screen are low, and negative values occur. Compounds were drawn at random from those tested, without regard to their results. A dash means the value is not listed here; it may have been measured.

LdMetRS: 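Primary screen of methionyl-tRNA synthetase; the read-out is not stated. Target: Methionyl-tRNA synthetase (putative), Leishmania donovani (UniProt E9BF75). The test concentration is not given. The values are filed as inhibition. Size under these conditions: about 68,000 compounds, about 24 of them at 50% or above in at least one test.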
Mtb heat-shock: 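Assay on Mycobacterium tuberculosis, filed only as a heat shock assay from Cornell; the read-out is not stated. The concentration is filed as 10 mM, unlikely as a test dose, so the dose is not known. Higher reads as stronger inhibition (inferred: compounds with an IC50 in retests scored well above the rest). Of about 69,000 compounds tested this way, about 930 (1.4%) reached 50% or more in at least one test.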

compound	LdMetRS	Mtb heat-shock
Cc1cc(-c2ccccc2C(=O)O)nc(C2CCCN(C(C)C)C2)n1 (centres unmarked)	11.86	-18.87
CN(C)c1nc(CNC(=O)NC2CCc3ccccc32)cs1 (centres unmarked)	9.524	2.86
CN(C)S(=O)(=O)N1CC[C@]2(C[C@@H](Oc3cccnc3)CO2)C1.O=C(O)C(F)(F)F	-	-11.53
CN(CCNC(=O)NCc1ccncc1)C1CCCC1	6.536	7.989
c1ccc2oc(N3CCCCC3Cn3cncn3)nc2c1 (centres unmarked)	9.841	-11.93
CC1=N[C@@]2(CC[C@@H]3CN(Cc4cccc(Cl)c4)C[C@@H]32)C(=O)N1CC1CC1	17.63	-
COc1cccc(OCC(=O)Nc2cc(C)cnc2OC)c1	6.596	-1.334
CC[C@@H]1N(Cc2nccs2)CCC[C@]12CCC(=O)N2C	0.3205	-
Cn1cccc1C(=O)N1C[C@@H]2C[C@@H](c3nc(C4CC4)cs3)O[C@@H]2C1	9.816	-
CN(C)C(=O)N1CCCn2nc(CNC(=O)CCc3ccsc3)cc2C1	5.376	-14.44
CN(C)[C@@H]1CN(Cc2ccoc2)C[C@@H]2CCCO[C@@H]21	7.296	-
O=C(O)C(F)(F)F.[H][C@@]12CCN(C3CCCCC3)[C@]1([H])CC[C@H](C(=O)N1CCOCC1)O2	-	7.862
Cc1ccsc1CNc1cc(N2CCCC2CO)ncn1 (centres unmarked)	15.28	-18.46
Cc1csc([C@@H]2C[C@@H]3CCN(C(=O)c4cccn4C)C[C@H]3O2)n1	10.64	-
Cc1nncn1CCNC(=O)C(C)(C)c1cccc(Cl)c1	11.33	5.625
COc1ccc(CNc2cc(-c3nc(C)no3)ccn2)c(OC)c1	15.32	-45.31
O=C(CSCC1CC1)N1CCCC(c2nccn2Cc2ccncc2)C1 (centres unmarked)	11.5	27.98
Cc1[nH]c2ccccc2c1-c1ccnc(NC[C@H](O)CO)n1	2.098	-11.24
CN(Cc1ccc([S+](C)[O-])cc1)c1ccc(Br)cn1 (centres unmarked)	10.66	-16.69
CSc1cccc(NC(=O)N2CCCC(CNC(=O)c3ccco3)C2)c1 (centres unmarked)	11.29	14
Cn1cc(N2C(=O)CC[C@@H]3[C@H]2CCN3Cc2ccncc2)cn1	16.32	-
CC(C)CN1C[C@@H]2CN(S(=O)(=O)c3cccs3)C[C@@H]2C1=O	8.333	-
O=c1cc(CN2CCCC2)nc2n1CCCN(CC1CCOCC1)C2	10.22	-14.03
COc1c(Cl)cccc1NCc1csc(C)n1	15.86	-10.21
CC(O)(CNc1ccccn1)c1ccccc1 (centres unmarked)	-0.2564	-23.99
c1cc2c(cc1CN1CC[C@H]3CO[C@H](CN4CCCC4)[C@H]3C1)OCO2	9.273	-
Cn1cccc1C(O)CNS(=O)(=O)c1ccccc1Br (centres unmarked)	0.7194	25.5
Cn1nc(COCC2CC2)c2c1CCN(C(=O)c1ccno1)C2	12.11	-17.91
Cc1noc(C)c1CN1CC[C@H]2C[C@H](c3nccs3)O[C@@H]2C1	8.667	-
O=C(C[S+]([O-])Cc1cccc(Cl)c1)NC1CCCC1 (centres unmarked)	15.81	-6.776
CS(=O)(=O)N1CC(c2nc[nH]n2)c2cc(C(=O)NC3CCCC3)ccc21 (centres unmarked)	17.13	-24.55
O=C(OCc1ccccc1)c1cccc(NC(=O)C2COCCO2)c1 (centres unmarked)	10.14	7.067
CCNc1ccnc(N2CCCC(CCOC)(C(=O)O)C2)n1 (centres unmarked)	-2.431	-10.4
O=C(NC1CC1)N1CCC2(CC1)C(=O)NCCN2Cc1ccccc1	5.556	-
Cc1cc(CNc2ccc(CC(=O)N(C)c3ccccc3)cc2)no1	4.348	4.221
Cn1cc(CN2CCc3c(nnn3C)C2COCc2ccccc2)cn1 (centres unmarked)	4.795	-
COc1ncc(C2(O)CCN(Cc3c(F)cccc3F)CC2)c(OC)n1	4.545	-
c1cc(CN2C[C@@H]3OCCN(CC4CCCO4)[C@@H]3C2)co1 (some centres unmarked)	6.806	-
CC(CN1CCOCC1)NC(=O)NCc1ccc(Cl)s1 (centres unmarked)	11.97	-17.36
CC(=O)N1CCN(Cc2ccc(OCc3nccn3C)cc2)CC1	17.38	-17.61
O=C(O)C(F)(F)F.[H][C@@]12CCN(Cc3ccco3)CC[C@]1([H])[C@H](COCC1CC1)CN(C)C2=O	-	-21.23

The first 5 entries again:

{"compound": "Cc1cc(-c2ccccc2C(=O)O)nc(C2CCCN(C(C)C)C2)n1", "stereo": "centres unmarked", "LdMetRS": 11.86, "Mtb heat-shock": -18.87}
{"compound": "CN(C)c1nc(CNC(=O)NC2CCc3ccccc32)cs1", "stereo": "centres unmarked", "LdMetRS": 9.524, "Mtb heat-shock": 2.86}
{"compound": "CN(C)S(=O)(=O)N1CC[C@]2(C[C@@H](Oc3cccnc3)CO2)C1.O=C(O)C(F)(F)F", "Mtb heat-shock": -11.53}
{"compound": "CN(CCNC(=O)NCc1ccncc1)C1CCCC1", "LdMetRS": 6.536, "Mtb heat-shock": 7.989}
{"compound": "c1ccc2oc(N3CCCCC3Cn3cncn3)nc2c1", "stereo": "centres unmarked", "LdMetRS": 9.841, "Mtb heat-shock": -11.93}